Reference: patent US7368431B2, “Polypeptide, the conjugate thereof with doxorubicine and a pharmaceutical composition based thereon” (Zakrytoe Aktsionernoe Obschestvo “Russkie Biotechnologll”, priority 2001, dated 2008)
For at least one compound, name, drawing or mass did not settle the structure. Numbered stars: 1 amine (or outer) side, 2 acyl side, 3 side chain; on linkers, the order of the positions; unused ones are H or OH. Square brackets hold non-standard residues; d marks the D form. Peptide text beside a SMILES is read from it. X2 = COc1cccc2c1C(=O)c1c(O)c3c(c(O)c1C2=O)C[C@@](O)(C(=O)CO)C[C@@H]3O[C@H]1C[C@H](N=CCCCC=NCCCC[C@H](N[*:1])C(=O)[*:2])[C@H](O)[C@H](C)O1

Tests used:
Assay in all cases: Cytotoxicity, MTT cell survival
Type in all cases: cell-based
[1] = tested on: murine melanoma cell line B16; conditions: B16, 72 hours
Method: (§1) Efficacy of the conjugate was studied on the following cell lines: human breast carcinoma cell line MCF-7^wt and resistant human breast carcinoma cell line MCF-7^AdrR; human ovary carcinoma cell line SKOV3 and resistant human ovary carcinoma cell line SKVLB; and murine melanoma cell line B16.
(§2) Study protocol was common for all test runs. The cells cultivated in plastic flasks (COSTAR) in the RPMI medium (SIGMA), which contained 10% of fetal bovine serum (SIGMA), 100 U/ml of penicillin and 100 μg/ml of streptomycin, in a wet environment of 5% CO2 at 37° C., were inoculated in 96-well plates (Costar), 10000 in each well, and studied drugs were then added at different concentrations. After that, the cells were incubated for 72 hours. Two-four hours prior to the end of the incubation period, 50 μl (1 mg/ml) of the MTT solution (3-[4,5-dimethylthiazole-2yl]-2,5-diphenyltetrazole bromide (SIGMA) in the culture medium were added in each well. After the development of coloration, the medium was removed, formazan crystals were dissolved in 150 μl of dimethyl sulfoxide, and the absorbance was measured by spectrophotometry at 540 nm. Survival rates of the cells exposed to free and conjugated DR were determined in percent relative to the survival rate of controls taken as 100%.

[2] = tested on: resistant human breast carcinoma cell line MCF-7^AdrR; conditions: 72 hours
Method: as §1, §2

[3] = tested on: human breast carcinoma cell line MCF-7^wt; conditions: 72 hours
Method: as §1, §2

[4] = tested on: human ovary carcinoma cell line SKOV3; conditions: SKOV3, 72 hours
Method: as §1, §2

[5] = tested on: resistant human ovary carcinoma cell line SKVLB; conditions: SKVLB^AdrR, 72 hours
Method: as §1, §2

Work on `CC[C@H](C)[C@H](NC(=O)[C@H](Cc1ccc(O)cc1)NC(=O)[C@@H](N)CCSC)C(=O)N[C@@H](CCC(=O)O)C(=O)N[C@@H](C)C(=O)N[C@@H](CC(C)C)C(=O)N[C@@H](CC(=O)O)C(=O)N[C@@H](CCCCN=CCCCC=N[C@H]1C[C@H](O[C@H]2C[C@](O)(C(=O)CO)Cc3c(O)c4c(c(O)c32)C(=O)c2c(OC)cccc2C4=O)O[C@@H](C)[C@H]1O)C(=O)N[C@@H](Cc1ccc(O)cc1)C(=O)N[C@@H](C)C(=O)N[C@@H](CS)C(=O)O` [EGF fragment-DR conjugate] (H-MYIEALD[X2]YAC-OH) yielded an IC50 [1] of 1.5 nM, an IC50 [2] of 300 nM and an IC50 [3] of 2.5 nM. For the same molecule, the IC50 [4] was 35 nM and the IC50 [5] was 200 nM.
